Test results as given in paper PMC3757464.
Results are given in words; binding and its absence hold for the method and conditions named. In cells and extracts the contact can be indirect. Binding can be weak; no strength is given.

Legend:
Test in all cases: pull-down; 15 µg recombinant GST-fused Lmo7 domain incubated 1.5 h at 4°C with HeLa lysate (GST Lysis Buffer: 100 mM HEPES pH 7.4, 150 mM NaCl, 2 mM EDTA, 0.1% SDS, 1% Triton X-100, 1 mM DTT), held on glutathione beads; immunoblot for p130Cas or paxillin; only the target purified
[1] = biological target: GST-fused LIM domain of rLmo7a (rat)
[2] = biological target: GST-fused predicted CH (Calponin Homology) domain of rLmo7a (rat)
[3] = biological target: GST-fused predicted PDZ domain of rLmo7a (rat)

binding [1]: binds | binding [2]: binds | binding [3]: binds
B1: endogenous p130Cas (protein, UniProt P56945 1-870)
chain: MNHLNVLAKALYDNVAESPDELSFRKGDIMTVLEQDTQGLDGWWLCSLHGRQGIVPGNRLKILVGMYDKKPAGPGPGPPATPAQPQPGLHAPAPPASQYTPMLPNTYQPQPDSVYLVPTPSKAQQGLYQVPGPSPQFQSPPAKQTSTFSKQTPHHPFPSPATDLYQVPPGPGGPAQDIYQVPPSAGMGHDIYQVPPSMDTRSWEGTKPPAKVVVPTRVGQGYVYEAAQPEQDEYDIPRHLLAPGPQDIYDVPPVRGLLPSQYGQEVYDTPPMAVKGPNGRDPLLEVYDVPPSVEKGLPPSNHHAVYDVPPSVSKDVPDGPLLREETYDVPPAFAKAKPFDPARTPLVLAAPPPDSPPAEDVYDVPPPAPDLYDVPPGLRRPGPGTLYDVPRERVLPPEVADGGVVDSGVYAVPPPAEREAPAEGKRLSASSTGSTRSSQSASSLEVAGPGREPLELEVAVEALARLQQGVSATVAHLLDLAGSAGATGSWRSPSEPQEPLVQDLQAAVAAVQSAVHELLEFARSAVGNAAHTSDRALHAKLSRQLQKMEDVHQTLVAHGQALDAGRGGSGATLEDLDRLVACSRAVPEDAKQLASFLHGNASLLFRRTKATAPGPEGGGTLHPNPTDKTSSIQSRPLPSPPKFTSQDSPDGQYENSEGGWMEDYDYVHLQGKEEFEKTQKELLEKGSITRQGKSQLELQQLKQFERLEQEVSRPIDHDLANWTPAQPLAPGRTGGLGPSDRQLLLFYLEQCEANLTTLTNAVDAFFTAVATNQPPKIFVAHSKFVILSAHKLVFIGDTLSRQAKAADVRSQVTHYSNLLCDLLRGIVATTKAAALQYPSPSAAQDMVERVKELGHSTQQFRRVLGQLAAA
